Assay results as given in PubChem BioAssay AID330 (DTP/NCI, 2004).
The list shows only some results of the screen, not a fair sample: it is rich in T/C values a quarter to a half above the control, in often repeated tests (any T/C) and in doses without a T/C. Other doses and runs of a compound stand elsewhere. T/C gives the treated animals as a percentage of the vehicle group. Some entries give survivors of the animals treated and no T/C: the source files T/C as zero there, which appears to mark a toxic dose or a test without result, not a measured value. Some doses without a T/C left all or most animals alive at the check, yet need not have been tolerated: the source hardly ever lists a survival T/C far under the control, and the zero likely stands for such cases as well. Survivors were counted at the toxicity check, usually on the fifth day, unless a day is given; later deaths do not show. Schedule codes are those of the source, read here as Q, the interval in days (D) or hours (H), X, the number of doses. Some entries were tested several times; the values are given in rising order. Where survival is the endpoint, this PubChem deposit counts one and a half times the control or more as active, and values a quarter to a half above the control carry no call in these data; other NCI protocols may use other cut-offs.

Test system: P388 leukemia ip, CD2F1 mice, survival T/C
Assay: NCI In Vivo Anticancer Drug Screen. Data for tumor model P388 Leukemia (intraperitoneal) in CD2F1 (CDF1) mice
Conditions: T/C endpoint: median survival time, higher T/C = longer survival
[1] = dose: 400.0 mg/kg/injection, schedule: Q04DX003 (ip), vehicle: Klucel (hydroxypropylcellulose) (HPC)

## Cn1c2ccccc2c2ccc3c(c21)C(=O)C=CC3=O
dose: 50.0 mg/kg/injection, schedule: Q01DX009 (ip), vehicle: distilled water + Tween-80
  T/C: 130 % of control
dose: 100.0 mg/kg/injection, schedule: Q01DX009 (ip), vehicle: distilled water + Tween-80
  survivor count: 4 of 5
dose: 200.0 mg/kg/injection, schedule: Q01DX009 (ip), vehicle: distilled water + Tween-80
  survivor count: 2 of 5

## Cc1cc2c(cc1CC(=O)O)CC(=O)NC2
dose: 12.5 mg/kg/injection, schedule: Q01DX009 (ip), vehicle: distilled water + Tween-80
  survivor count: 3 of 3

## C=CCOC(=O)CCl
dose: 200.0 mg/kg/injection, schedule: Q04DX003 (ip), vehicle: Klucel (hydroxypropylcellulose) (HPC)
  survivor count: 0 of 6
[1]
  survivor count: 0 of 6

## [Cu+2].[NH-]CC(=O)NC(Cc1ccccc1)C(=O)O.[NH-]CC(=O)NC(Cc1ccccc1)C(=O)O (configuration not stated)
dose: 100.0 mg/kg/injection, schedule: Q04DX003 (ip), vehicle: saline
  survivor count: 0 of 6
dose: 200.0 mg/kg/injection, schedule: Q04DX003 (ip), vehicle: saline
  survivor count: 0 of 6
dose: 400.0 mg/kg/injection, schedule: Q04DX003 (ip), vehicle: saline
  survivor count: 0 of 6

## CCCCC(NC(C)=O)C(=O)O (configuration not stated)
dose: 400.0 mg/kg/injection, schedule: Q01DX009 (ip), vehicle: saline with Tween-80
  survivor count: 5 of 6

## O=c1cc(-c2ccccc2)[nH]c2c1CCCC2
dose: 100.0 mg/kg/injection, schedule: Q01DX009 (ip), vehicle: saline with Tween-80
  T/C: 130 % of control
dose: 200.0 mg/kg/injection, schedule: Q01DX009 (ip), vehicle: saline with Tween-80
  T/C: 141 and 148 % of control
dose: 600.0 mg/kg/injection, schedule: Q01DX009 (ip), vehicle: saline with Tween-80
  survivor count: 0 of 6

## COc1cc(NCCCCC(C)N)c2nccc(C)c2c1 (configuration not stated)
dose: 50.0 mg/kg/injection, schedule: Q01DX009 (ip), vehicle: saline
  survivor count: 6 of 6

## CC(=O)OC(C)C(C)[N+](C)(C)C (configuration not stated)
dose: 200.0 mg/kg/injection, schedule: Q04DX002 (ip), vehicle: saline
  survivor count: 4 of 6
dose: 400.0 mg/kg/injection, schedule: Q04DX002 (ip), vehicle: saline
  survivor count: 1 of 6

## CCOC(=O)C1=C(C(=O)c2cccc3ccccc23)C(c2cccc([N+](=O)[O-])c2)C(C(=O)c2cccc3ccccc23)=C(C(=O)OCC)N1
dose: 60.0 mg/kg/injection, schedule: Q01DX005 (ip), vehicle: Klucel (hydroxypropylcellulose) (HPC)
  survivor count: 6 of 6
dose: 120.0 mg/kg/injection, schedule: Q01DX005 (ip), vehicle: Klucel (hydroxypropylcellulose) (HPC)
  survivor count: 6 of 6
dose: 240.0 mg/kg/injection, schedule: Q01DX005 (ip), vehicle: Klucel (hydroxypropylcellulose) (HPC)
  survivor count: 5 of 6

## NCc1cc(=O)[nH]o1
dose: 200.0 mg/kg/injection, schedule: Q01DX009 (ip), vehicle: saline
  survivor count: 6 of 6

## NC(N)=N/N=C1/C=C2C/C(=N\N=C(N)N)C=C2C1
dose: 200.0 mg/kg/injection, schedule: Q01DX005 (ip), vehicle: Klucel (hydroxypropylcellulose) (HPC)
  survivor count: 1 of 6

## O=[N+]([O-])c1ccccc1/C(=N\O)c1cccs1
dose: 400.0 mg/kg/injection, schedule: Q04DX002 (ip), vehicle: Klucel (hydroxypropylcellulose) (HPC)
  survivor count: 5 of 5

## C=C1CCN(c2ccc(OCC)cc2)C1=O
dose: 16.0 mg/kg/injection, schedule: Q01DX009 (ip), vehicle: saline + alcohol
  T/C: 136 % of control

## COc1c2occc2c(NC(=O)CCl)c2ccc(=O)oc12
dose: 400.0 mg/kg/injection, schedule: Q04DX002 (ip), vehicle: saline with Tween-80
  survivor count: 0 of 6

## Cc1nc(N=C(N)N)nc2ccc3ccccc3c12
dose: 12.5 mg/kg/injection, schedule: Q01DX009 (ip), vehicle: Klucel (hydroxypropylcellulose) (HPC)
  survivor count: 0 of 6
dose: 25.0 mg/kg/injection, schedule: Q01DX009 (ip), vehicle: Klucel (hydroxypropylcellulose) (HPC)
  survivor count: 3 of 6
dose: 50.0 mg/kg/injection, schedule: Q01DX009 (ip), vehicle: Klucel (hydroxypropylcellulose) (HPC)
  survivor count: 1 of 6
dose: 100.0 mg/kg/injection, schedule: Q01DX009 (ip), vehicle: Klucel (hydroxypropylcellulose) (HPC)
  survivor count: 0 of 6

## COCCCN=C(N)c1ccc(NC(=O)c2ccc(C(=O)Nc3ccc(C(N)=NCCCOC)cc3)cc2)cc1
dose: 4.4 mg/kg/injection, schedule: Q04DX003 (ip), vehicle: saline with Tween-80
  T/C: 140 % of control

## CC(C)CC1NC(=O)C2N=C(OC2C)C2CSSCC(NC(=O)c3csc1n3)C1=NC(C(=O)NC(CC(C)C)c3nc(cs3)C(=O)N2)C(C)O1 (configuration not stated)
dose: 1.6 mg/kg/injection, schedule: Q01DX005 (ip), vehicle: DMSO
  survivor count: 6 of 6
dose: 3.0 mg/kg/injection, schedule: Q01DX005 (ip), vehicle: DMSO
  survivor count: 0 of 5
dose: 6.0 mg/kg/injection, schedule: Q01DX005 (ip), vehicle: DMSO
  survivor count: 0 of 5

## O=C1C(N2CCOCC2)=C(N2CC2)C(=O)C(N2CCOCC2)=C1N1CC1
dose: 2.0 mg/kg/injection, schedule: Q01DX009 (ip), vehicle: saline
  survivor count: 6 of 6

## COC(=O)c1cc(OC(C)=O)c2cc3c(cc2c1-c1cc(OC)c(OC)c(OC)c1)OCO3
[1]
  survivor count: 3 of 6

## CC(Cl)C(=O)N(C)c1ccccc1 (configuration not stated)
[1]
  survivor count: 1 of 6

## CCCCOc1cccc2c(NCCCCNCCCNc3c4ccccc4nc4c(OCCCC)cccc34)c3ccccc3nc12
dose: 2.5 mg/kg/injection, schedule: Q01DX009 (ip), vehicle: other
  T/C: 128 % of control
dose: 5.0 mg/kg/injection, schedule: Q01DX009 (ip), vehicle: other
  T/C: 127 % of control
dose: 10.0 mg/kg/injection, schedule: Q01DX009 (ip), vehicle: other
  survivor count: 0 of 6 and 5 of 6
dose: 20.0 mg/kg/injection, schedule: Q01DX009 (ip), vehicle: other
  survivor count: 0 of 6
dose: 40.0 mg/kg/injection, schedule: Q01DX009 (ip), vehicle: other
  survivor count: 0 of 6

## Fc1cccc(NC(=S)SCc2ccc(Cl)cc2)c1
dose: 50.0 mg/kg/injection, schedule: Q01DX009 (ip), vehicle: suspension in saline
  survivor count: 6 of 6
dose: 200.0 mg/kg/injection, schedule: Q01DX009 (ip), vehicle: suspension in saline
  survivor count: 5 of 6
